Consider three molecules from publication PMC7069986.

Protein sequences, listed by entry. Tags and fused reporters are not part of them. Lines headed by an entry give the natural chain unless they say otherwise; changes in a name come on top.
UniProt Q9SA26: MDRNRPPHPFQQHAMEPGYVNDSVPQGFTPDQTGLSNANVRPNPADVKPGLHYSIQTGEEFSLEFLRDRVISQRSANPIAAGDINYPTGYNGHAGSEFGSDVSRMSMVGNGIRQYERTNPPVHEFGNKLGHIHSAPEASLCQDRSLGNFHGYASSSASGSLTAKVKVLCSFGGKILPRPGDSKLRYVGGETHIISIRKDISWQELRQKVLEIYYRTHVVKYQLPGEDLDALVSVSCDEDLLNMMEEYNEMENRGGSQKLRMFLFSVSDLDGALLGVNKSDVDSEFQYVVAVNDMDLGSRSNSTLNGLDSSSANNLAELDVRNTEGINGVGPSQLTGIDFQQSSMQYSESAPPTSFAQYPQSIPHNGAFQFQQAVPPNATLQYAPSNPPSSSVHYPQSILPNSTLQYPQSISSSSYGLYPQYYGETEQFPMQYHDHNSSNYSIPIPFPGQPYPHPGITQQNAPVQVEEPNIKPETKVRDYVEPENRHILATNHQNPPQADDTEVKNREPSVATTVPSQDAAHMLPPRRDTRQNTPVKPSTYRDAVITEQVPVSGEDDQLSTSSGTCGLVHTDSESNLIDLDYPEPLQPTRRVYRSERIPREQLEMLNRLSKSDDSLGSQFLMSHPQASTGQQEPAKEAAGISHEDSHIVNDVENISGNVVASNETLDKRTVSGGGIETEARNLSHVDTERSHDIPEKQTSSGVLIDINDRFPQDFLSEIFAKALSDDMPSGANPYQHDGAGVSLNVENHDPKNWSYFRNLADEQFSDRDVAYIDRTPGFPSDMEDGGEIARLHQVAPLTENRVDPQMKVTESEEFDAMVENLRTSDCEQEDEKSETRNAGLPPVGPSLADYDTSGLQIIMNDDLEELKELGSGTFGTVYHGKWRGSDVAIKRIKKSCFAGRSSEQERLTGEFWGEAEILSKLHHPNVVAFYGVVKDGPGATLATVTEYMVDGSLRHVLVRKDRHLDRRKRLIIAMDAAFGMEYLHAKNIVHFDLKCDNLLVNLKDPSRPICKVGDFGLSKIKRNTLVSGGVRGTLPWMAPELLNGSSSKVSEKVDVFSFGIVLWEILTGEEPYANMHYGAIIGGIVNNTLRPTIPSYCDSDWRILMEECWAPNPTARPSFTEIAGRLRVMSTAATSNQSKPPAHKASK

These are yes or no findings as the source states them, for the method shown. In cells and extracts the contact can be indirect. Here binding means that the protein was enriched with, or labelled near, the bait; the list need not be complete. Tags and fused reporters may be left off the sequences shown.

For assay [1], the target named is T1, Green fluorescent protein (GFP)-tagged SRK2G (Arabidopsis thaliana) (UniProt P43292).
T1 sequence: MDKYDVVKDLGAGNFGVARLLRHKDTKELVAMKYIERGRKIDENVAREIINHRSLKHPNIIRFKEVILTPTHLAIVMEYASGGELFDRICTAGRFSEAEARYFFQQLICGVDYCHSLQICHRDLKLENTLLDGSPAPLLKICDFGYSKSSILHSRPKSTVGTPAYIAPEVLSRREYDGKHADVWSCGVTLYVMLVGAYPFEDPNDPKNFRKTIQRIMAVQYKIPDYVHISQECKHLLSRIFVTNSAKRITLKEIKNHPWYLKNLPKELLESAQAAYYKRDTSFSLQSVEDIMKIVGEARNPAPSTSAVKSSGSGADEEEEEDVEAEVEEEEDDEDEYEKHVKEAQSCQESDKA
The assay is described as follows: affinity purification with mass spectrometry; SRK2A-GFP or SRK2G-GFP immunoprecipitated with anti-GFP MicroBeads from extracts of transgenic Arabidopsis plants treated with 800 mM mannitol for 10 min; LC-MS/MS; proteins detected in GFP-expressing plants excluded; two biological replicates.

In assay [2] the target is T2, Green fluorescent protein (GFP)-tagged SRK2A (Arabidopsis thaliana) (UniProt P43291).
T2 sequence: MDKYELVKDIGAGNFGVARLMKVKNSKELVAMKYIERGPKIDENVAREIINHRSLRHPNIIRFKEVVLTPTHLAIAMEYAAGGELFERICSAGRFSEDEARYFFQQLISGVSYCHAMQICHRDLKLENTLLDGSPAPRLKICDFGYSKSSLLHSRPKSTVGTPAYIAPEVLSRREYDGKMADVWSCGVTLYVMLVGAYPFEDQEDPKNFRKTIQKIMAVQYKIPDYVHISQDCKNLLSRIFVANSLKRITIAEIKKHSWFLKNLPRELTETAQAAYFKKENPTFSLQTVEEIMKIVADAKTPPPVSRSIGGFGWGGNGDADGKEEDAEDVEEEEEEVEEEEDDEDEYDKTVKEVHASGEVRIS
The description is as above.

“RAF18 (B4 Raf-like MAPKKK), endogenous (from UniProt Q9SA26)”: the binding result in assay [1] and in assay [2] was “binds” in each case.

B1: RAF20 (B4 Raf-like MAPKKK), endogenous (protein, UniProt Q9SAJ2 1-1248)
chain: MDKARHQQLFQHSMEPGYRNETVPQPFMPDQTGSASANMRPPNSNGSDVKAVHNFSIQTGEEFSLEFMRDRVIPQRSSNPNGAGDMNYNTGYMELRGLIGISHTGSECASDVSRFSTVENGTSDIERTNSSLHEFGNKLNHVQSAPQALLSKDSSVGNLHGYKNTSSSASGSVTAKVKILCSFGGKILPRPGDSKLRYVGGETHIISIRKDISWQELRQKILEIYYQTRVVKYQLPGEDLDALVSVSSEEDLQNMLEEYNEMENRGGSQKLRMFLFSISDMDDALLGVNKNDGDSEFQYVVAVNGMDIGSGKNSTLLGLDSSSANNLAELDVRNTEGINTIAGDVVGVGASQLMVNGFQQTSAQQSESIPPSSSLHYSQSIPLNAAYQLQQSVPPSSALHYPQSITPGSSLQYPQSITPGSSYQYPQSIIPGSASSYGIYPQYYGHVVQHGERERFPLYPDHSSNYSAIGETTSSIPIQGHVSQQGGWAEGYPYPGSTPKSTQALAEEQKVSSDMKIREEVEPENRKTPGNDHQNPPQIDDVEVRNHNQVREMAVATTPPSQDAHLLPPSRDPRQNTTAKPATYRDAVITGQVPLSGIEDQLSTSSSTYAPVHSDSESNLIDLNYPEPEQSSQRVYCSERIPREQLELLNRLSKSDNSLSSQFVTSESPANTAQQDSGKEAVGKSHDEFKTVNDDANHHTHKDVETIFEKVGVSDETLESEPLHKIVNPDDANKNRVVNGADTEIGVSNLSHVNAAMSHVIPEEQASLQGDILIDINDRFPRDFLSEIFSQAISEDTSTVRPYPHDGAAVSMNVQNHDRKNWSYFQQLAEDQFIQRDVVLDQADSRIPSDRKDGGESSRLPYVSPLSRDGISTNLANPQLTLGQDYGGNFSEKDGGGTGSIPPALENEQMKVTESEEFGAMVENLRTPDSEPKDEKTETRHAALPPLGSEFDYSGLQIIKNEDLEELRELGSGTFGTVYHGKWRGSDVAIKRIKKSCFAGRSSEQERLTGEFWGEAEILSKLHHPNVVAFYGVVKDGPGGTLATVTEYMVDGSLRHVLVRKDRHLDRRKRLIIAMDAAFGMEYLHSKNTVHFDLKCDNLLVNLKDPSRPICKVGDFGLSKIKRNTLVSGGVRGTLPWMAPELLNGSSSKVSEKVDVFSFGIVLWEILTGEEPYANMHYGAIIGGIVNNTLRPTIPGFCDDEWRTLMEECWAPNPMARPSFTEIAGRLRVMSSAATSTQSKPSAHRASK
On to B1, for which the binding entry in assay [1] and in assay [2] was “binds” in each case.

B2: RAF24 (B4 Raf-like MAPKKK), endogenous (protein, UniProt O64768 1-1257)
chain: MDQAKGYEHVRYTAPDPRDEGLGSINQRFSHDSSTNVNTYVRPPDYGVSTPARPVLNYSIQTGEEFAFEFMRDRVIMKPQFIPNVYGEHSGMPVSVNLSALGMVHPMSESGPNATVLNIEEKRQSFEHERKPPSRIEDKTYHELVQSAPVISSKNDTGQRRHSLVSSRASDSSLNRAKFLCSFGGKVIPRPRDQKLRYVGGETRIIRISKTISFQELMHKMKEIFPEARTIKYQLPGEDLDALVSVSSDEDLQNMMEECIVFGNGGSEKPRMFLFSSSDIEEAQFVMEHAEGDSEVQYVVAVNGMDLSSRRSSLGLSPPGNNLDELLHGNFDRKIDRAATEPAVASLTPLAGNESLPASQTSQPVTGFSTGNEPFSQPYLGQQLQFPGLGNHQIYTSGHMASIGYIDEKRSAPLHVQPQPHYIPYSVNPETPLESLVPHYPQKPEQGFLREEQIFHVQDPETSSKEAKMRRDDSFQKVNDHPISTVESNLSAKEPKMRRESSTPRVNEYPVSSMPSDLIVPDDLPKEEAPIVTQTSSSTPDPSSSTLSEKSLRKSEDHVENNLSAKEPKMRKEHSTTRVNEYSVSSVSSDSMVPDQALKEEAPISMKISNSTPDPKSLVYPEKSLRTSQEKTGAFDTTNEGMKKNQDNQFCLLGGFSVSGHGTSNNSSSNVSNFDQPVTQQRVFHSERTVRDPTETNRLSKSDDSLASQFVMAQTTSDAFLPISESSETSHEANMESQNVHPTAPVIPAPDSIWTAEGSMSQSEKKNVETNTPEHVSQTETSAKAVPQGHNEKGDIVVDINDRFPREFLADILKTKESLNFPGLGPLHADGAGVSLNIQNNDPKTWSYFRNLAQDEFERKDLSLMDQDHPGFPTSMTNTNGVPIDYSYPPLQSEKVASSQIHPQIHFDGNIKPDVSTITIPDLNTVDTQEDYSQSQIKGAESTDATLNAGVPLIDFMAADSGMRSLQVIKNDDLEELKELGSGTFGTVYHGKWRGTDVAIKRIKRSCFIGRSSEQERLTSEFWHEAEILSKLHHPNVMAFYGVVKDGPGGTLATVTEYMVNGSLRHVLLSNRHLDRRKRLIIAMDAAFGMEYLHSKSIVHFDLKCDNLLVNLKDPARPICKVGDFGLSKIKRNTLVTGGVRGTLPWMAPELLSGSSSKVSEKVDVFSFGIVLWEILTGEEPYANMHYGAIIGGIVNNTLRPTVPNYCDPEWRMLMEQCWAPDPFVRPAFPEIARRLRTMSSSAVHTKPHAVNHQIHK
Regarding B2, the binding result in assay [1] and in assay [2] was “binds” throughout.
